Consider one substance from paper PMC2750749.

Sequences of proteins named here, by UniProt entry; tags and fusion partners are left off. A change or cut given only in a name is not applied to a line headed by its entry.
UniProt P09038: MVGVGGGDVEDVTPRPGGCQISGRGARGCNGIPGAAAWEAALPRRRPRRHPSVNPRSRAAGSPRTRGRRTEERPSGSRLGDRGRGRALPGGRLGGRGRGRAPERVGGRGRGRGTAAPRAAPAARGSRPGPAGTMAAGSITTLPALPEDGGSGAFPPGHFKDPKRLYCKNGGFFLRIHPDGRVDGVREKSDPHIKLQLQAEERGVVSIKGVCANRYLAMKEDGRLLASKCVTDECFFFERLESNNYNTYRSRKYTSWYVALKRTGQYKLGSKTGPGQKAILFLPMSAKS

These are yes or no findings as the source states them, for the method shown. In cells and extracts the contact can be indirect. A result given as binding can be weak or reduced; the word gives no strength. For some assays here: Where a sequence is shown, tags or fusion partners need not be part of it.

Test [1] addresses T1, syndecan-1/EGFP fusion protein (human) (UniProt P18827).
T1 sequence: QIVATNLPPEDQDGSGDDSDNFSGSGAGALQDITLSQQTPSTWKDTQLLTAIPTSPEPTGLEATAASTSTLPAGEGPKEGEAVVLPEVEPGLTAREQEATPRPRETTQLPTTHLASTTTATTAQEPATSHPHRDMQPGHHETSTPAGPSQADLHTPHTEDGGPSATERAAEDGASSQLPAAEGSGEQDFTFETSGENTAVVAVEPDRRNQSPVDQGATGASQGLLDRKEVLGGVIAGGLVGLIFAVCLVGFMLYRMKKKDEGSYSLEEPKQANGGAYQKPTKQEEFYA
Briefly: co-IP; Nuclear Complex Co-IP Kit (Active Motif); 100 ug nuclear extract of sub-confluent STAV-AB cells stably transfected with syndecan-1/EGFP or EGFP vector, 3 ug goat polyclonal antibody against the C-terminus of syndecan-1 (C-20), protein G Sepharose; precipitates slot-blotted and probed with anti-FGF-2; no-antibody negative control.

Test [2] concerns the target T2, syndecan-1 (human (endogenous in STAV-AB)) (UniProt P18827).
T2 sequence: T1 sequence
Described as above.

For the substance “basic fibroblast growth factor (FGF-2) (from UniProt P09038)”, the binding result in test [1] and in test [2] was “binds” throughout.
